This note sets out measurements from PMC12439479.

Protein sequences, listed by entry. Tags and fused reporters are not part of them. Residues count along the entry.
UniProt Q9NP99, residues 21-234: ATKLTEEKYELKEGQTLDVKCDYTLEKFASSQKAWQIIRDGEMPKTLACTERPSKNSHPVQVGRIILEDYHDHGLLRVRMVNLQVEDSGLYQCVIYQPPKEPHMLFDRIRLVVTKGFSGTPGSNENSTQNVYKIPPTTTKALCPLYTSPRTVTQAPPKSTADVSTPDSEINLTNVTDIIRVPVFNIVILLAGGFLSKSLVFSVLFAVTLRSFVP
UniProt Q04206: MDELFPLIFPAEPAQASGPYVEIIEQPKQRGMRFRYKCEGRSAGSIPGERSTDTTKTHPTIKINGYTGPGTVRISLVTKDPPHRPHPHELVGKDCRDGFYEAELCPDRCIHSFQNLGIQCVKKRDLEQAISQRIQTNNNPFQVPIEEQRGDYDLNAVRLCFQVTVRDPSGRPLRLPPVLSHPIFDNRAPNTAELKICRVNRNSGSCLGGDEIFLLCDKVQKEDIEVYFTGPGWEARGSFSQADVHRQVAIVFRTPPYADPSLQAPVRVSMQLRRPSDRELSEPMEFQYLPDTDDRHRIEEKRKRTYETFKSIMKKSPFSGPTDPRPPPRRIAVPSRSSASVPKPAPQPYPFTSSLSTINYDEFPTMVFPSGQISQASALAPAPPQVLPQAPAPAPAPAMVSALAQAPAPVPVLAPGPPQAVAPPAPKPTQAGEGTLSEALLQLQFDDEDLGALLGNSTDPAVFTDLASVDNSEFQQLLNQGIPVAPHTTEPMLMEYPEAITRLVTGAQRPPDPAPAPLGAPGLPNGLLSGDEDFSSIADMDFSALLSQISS

This assay has as its target TREM1 (human (endogenous in HUVEC)) (UniProt Q9NP99). The assay can be described thus: co-IP; endothelial cell lysates in IP buffer incubated overnight at 4°C with anti-TREM1 antibody-conjugated magnetic beads, three washes, elution in SDS-PAGE buffer, immunoblotting; cells with NETs stimulation. For orientation: In western blotting, separated proteins are transferred to a membrane and probed.

No constants are given. Whether binding was seen depends on the method and setting. In cells and extracts the contact can be indirect. Some entries that bind do so weakly or less than the wild type.

As to NF-κB p65 (from UniProt Q04206 1-551), the binding entry is “binds”.
